# Primary screen of a compound library

Amino acid sequences for entries named in this document (tags omitted).
UniProt I6X8D2, whole entry: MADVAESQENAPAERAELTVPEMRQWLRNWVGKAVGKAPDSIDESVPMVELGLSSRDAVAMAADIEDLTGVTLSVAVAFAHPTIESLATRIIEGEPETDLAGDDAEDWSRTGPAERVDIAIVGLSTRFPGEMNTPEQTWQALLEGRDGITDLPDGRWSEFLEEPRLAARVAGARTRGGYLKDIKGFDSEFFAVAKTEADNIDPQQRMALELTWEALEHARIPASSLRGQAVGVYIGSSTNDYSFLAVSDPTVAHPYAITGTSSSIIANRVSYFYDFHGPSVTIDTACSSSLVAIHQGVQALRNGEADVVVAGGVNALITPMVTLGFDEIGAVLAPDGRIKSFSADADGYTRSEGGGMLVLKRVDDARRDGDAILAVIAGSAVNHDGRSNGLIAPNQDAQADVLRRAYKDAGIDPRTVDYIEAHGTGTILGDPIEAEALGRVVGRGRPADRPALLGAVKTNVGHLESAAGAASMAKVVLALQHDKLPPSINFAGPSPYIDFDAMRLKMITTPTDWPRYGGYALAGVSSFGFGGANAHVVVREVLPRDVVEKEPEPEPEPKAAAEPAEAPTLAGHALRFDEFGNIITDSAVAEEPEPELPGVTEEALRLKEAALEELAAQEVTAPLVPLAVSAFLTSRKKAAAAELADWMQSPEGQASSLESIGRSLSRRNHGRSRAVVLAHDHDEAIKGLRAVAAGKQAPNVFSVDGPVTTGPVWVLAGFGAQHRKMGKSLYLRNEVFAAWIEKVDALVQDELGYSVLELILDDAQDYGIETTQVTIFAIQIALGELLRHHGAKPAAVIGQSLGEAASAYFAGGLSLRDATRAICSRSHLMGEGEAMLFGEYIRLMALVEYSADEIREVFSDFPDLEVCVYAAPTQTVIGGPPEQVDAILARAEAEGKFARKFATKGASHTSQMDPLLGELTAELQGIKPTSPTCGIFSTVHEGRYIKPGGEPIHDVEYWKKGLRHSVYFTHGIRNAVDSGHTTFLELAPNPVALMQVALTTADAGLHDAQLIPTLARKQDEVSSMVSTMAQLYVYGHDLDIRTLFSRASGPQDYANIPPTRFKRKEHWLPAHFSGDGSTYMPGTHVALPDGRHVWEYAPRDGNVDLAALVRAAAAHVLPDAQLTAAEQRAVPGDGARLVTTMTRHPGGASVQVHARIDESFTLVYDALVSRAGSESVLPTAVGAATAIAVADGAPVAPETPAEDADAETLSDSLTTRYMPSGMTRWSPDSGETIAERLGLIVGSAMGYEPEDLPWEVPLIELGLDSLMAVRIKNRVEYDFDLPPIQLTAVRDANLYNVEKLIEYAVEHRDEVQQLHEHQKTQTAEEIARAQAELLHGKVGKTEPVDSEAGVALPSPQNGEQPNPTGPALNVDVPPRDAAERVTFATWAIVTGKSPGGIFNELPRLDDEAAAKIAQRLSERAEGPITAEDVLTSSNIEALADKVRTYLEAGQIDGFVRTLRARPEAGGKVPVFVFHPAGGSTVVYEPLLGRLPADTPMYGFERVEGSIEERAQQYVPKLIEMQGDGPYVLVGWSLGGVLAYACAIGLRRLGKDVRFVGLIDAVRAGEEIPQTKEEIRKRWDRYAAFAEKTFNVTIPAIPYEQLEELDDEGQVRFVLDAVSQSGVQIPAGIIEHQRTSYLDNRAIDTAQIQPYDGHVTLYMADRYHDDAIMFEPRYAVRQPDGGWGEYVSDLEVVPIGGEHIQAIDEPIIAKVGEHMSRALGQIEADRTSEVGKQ
UniProt P9WNZ1, whole entry: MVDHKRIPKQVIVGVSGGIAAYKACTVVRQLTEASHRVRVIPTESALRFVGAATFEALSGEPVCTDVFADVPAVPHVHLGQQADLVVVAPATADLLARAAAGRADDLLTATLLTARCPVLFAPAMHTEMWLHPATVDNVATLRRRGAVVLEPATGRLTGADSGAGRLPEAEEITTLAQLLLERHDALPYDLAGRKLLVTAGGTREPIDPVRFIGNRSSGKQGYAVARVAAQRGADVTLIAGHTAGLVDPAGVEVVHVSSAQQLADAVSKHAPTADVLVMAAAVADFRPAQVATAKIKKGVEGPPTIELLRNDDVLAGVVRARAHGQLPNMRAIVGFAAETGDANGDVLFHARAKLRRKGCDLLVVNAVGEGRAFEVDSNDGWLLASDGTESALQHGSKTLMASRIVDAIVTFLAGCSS
UniProt P9WFT3, whole entry: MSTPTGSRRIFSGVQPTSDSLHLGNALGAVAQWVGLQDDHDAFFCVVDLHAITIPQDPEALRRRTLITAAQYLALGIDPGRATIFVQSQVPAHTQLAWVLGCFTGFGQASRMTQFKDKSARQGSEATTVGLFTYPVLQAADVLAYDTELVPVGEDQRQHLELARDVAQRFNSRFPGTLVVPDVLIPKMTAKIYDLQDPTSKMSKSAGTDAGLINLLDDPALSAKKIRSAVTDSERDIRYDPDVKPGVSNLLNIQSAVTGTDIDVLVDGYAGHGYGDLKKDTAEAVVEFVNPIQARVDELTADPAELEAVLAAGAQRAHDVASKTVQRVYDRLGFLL

Pks13 thioesterase: 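Enzyme assay of the thioesterase domain of polyketide synthase 13; the read-out is not stated. Target: Polyketide synthase Pks13, Mycobacterium tuberculosis (UniProt I6X8D2). Concentration: 30 µM. Higher reads as stronger inhibition (inferred from which compounds were picked for retests). Size under these conditions: about 67,000 compounds, about 300 of them at 50% or above in at least one test.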
CoaBC: 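Enzyme assay of CoaBC with a phosphate dye (Biomol Green) read at 650 nm. Target: Coenzyme A biosynthesis protein CoaBC, Mycobacterium tuberculosis (UniProt P9WNZ1). Concentration: 30 µM. Higher reads as stronger inhibition, judged from the few compounds that gave an IC50. Most strong results did not repeat in a second test. Of about 67,000 compounds tested this way, about 40 (0.06%) reached 50% or more in at least one test.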
Leishmania in macrophages: 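Cell assay of Leishmania donovani living inside macrophages; the read-out is not stated. Concentration: 30 µM. Direction is inferred from retests: higher values go with stronger inhibition. Size under these conditions: about 69,000 compounds, about 1,000 of them at 50% or above in at least one test.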
MtTrpRS: 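Tryptophan-tRNA ligase, Mycobacterium tuberculosis (UniProt P9WFT3). Enzyme assay of tryptophanyl-tRNA synthetase; the read-out is not stated. Concentration: 10 µM. Direction is not recorded; retested compounds ran higher, which suggests that high means inhibition. About 65,000 compounds were tested under these conditions; 0.098% (about 64) showed 50% or more at least once.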

Each number is a percent effect as filed.
The record does not define 0% and 100%; most values in the screen are far below 50% and negative numbers occur (in some assays of this library far below -100).
This is an unselected part of the compounds tested.

{"structure": "Cc1cccc(N2CC[C@@H]3CN(Cc4csc(C)n4)CCO[C@@H]3C2)n1", "Pks13 thioesterase": -10.61, "CoaBC": 6.049, "MtTrpRS": -3.739}
{"structure": "CCOc1ncccc1CNC(=O)Nc1ccccc1", "Pks13 thioesterase": -26.63, "CoaBC": 2.151, "Leishmania in macrophages": -12.58, "MtTrpRS": 36.55}
{"structure": "N#Cc1ccc(CNC(=O)NC2CCN(CC(F)F)CC2)cc1", "Pks13 thioesterase": -15.62, "CoaBC": -9.251, "Leishmania in macrophages": 33.74, "MtTrpRS": -1.676}
{"structure": "COc1ccc(C(=O)NCCc2nnc3ccccn23)c(OC)c1", "Pks13 thioesterase": -32.17, "CoaBC": 3.077, "Leishmania in macrophages": -22.24, "MtTrpRS": -1.329}
{"structure": "CN(CCc1ccccc1)c1cnn(CC(=O)N2CCSCC2)c(=O)c1", "Pks13 thioesterase": -3.983, "CoaBC": -2.345, "Leishmania in macrophages": 9.987, "MtTrpRS": -3.92}
{"structure": "CC(C)n1ncc2c1NC(=O)CC2c1ccccc1Cl", "stereo": "centres undefined", "Pks13 thioesterase": -13.01, "CoaBC": 2.911, "Leishmania in macrophages": 5.637, "MtTrpRS": 2.034}
{"structure": "COc1ccc(C2SC(C)=Nc3c2c(=O)[nH]n3C2CCCCC2)cc1O", "stereo": "centres undefined", "Pks13 thioesterase": -40.45, "CoaBC": 3.634, "Leishmania in macrophages": 38.45, "MtTrpRS": 0.603}
{"structure": "N#CCCN(CC1CCCO1)C(=O)c1ccsc1", "stereo": "centres undefined", "Pks13 thioesterase": 3.792, "CoaBC": -0.4854, "Leishmania in macrophages": 38.34}
{"structure": "Cc1ncncc1C(=O)N1CCCN(Cc2nccn2C(C)C)CC1", "Pks13 thioesterase": 15.2, "CoaBC": 3.509, "Leishmania in macrophages": 30.73, "MtTrpRS": 3.592}
{"structure": "CCN(CC)C(=O)[C@@H]1C[C@@H](NC(=O)c2ccoc2)CN1C", "Pks13 thioesterase": -23.39, "CoaBC": 0, "Leishmania in macrophages": -8.03, "MtTrpRS": -3.311}
{"structure": "CCOCC1CN(Cc2ccoc2)Cc2nn(C)cc21", "stereo": "centres undefined", "Pks13 thioesterase": 0.4157, "CoaBC": -3.008, "MtTrpRS": 4.149}
{"structure": "CN(C)C(CNC(=O)c1[nH]nc(C2CC2)c1Br)C1CC1", "stereo": "centres undefined", "Pks13 thioesterase": -39.27, "CoaBC": -3.185, "Leishmania in macrophages": 7.066, "MtTrpRS": -1.534}
{"structure": "COCC(=O)N(Cc1cccc(C)c1)Cc1ccccc1OC", "Pks13 thioesterase": -26.21, "CoaBC": -4.512, "Leishmania in macrophages": 40.9, "MtTrpRS": 0.2649}
{"structure": "Cn1c(C2CCCN2C(=O)c2cn(CCN)nn2)nc2ccccc21", "stereo": "centres undefined", "Pks13 thioesterase": -17.68, "CoaBC": 0.2237, "Leishmania in macrophages": 8.904, "MtTrpRS": 6.117}
{"structure": "Cc1cccc(-c2nc(CN3CC(n4nc(C)cc4C)C3)no2)c1", "Pks13 thioesterase": -11.72, "CoaBC": 6.599, "Leishmania in macrophages": 19.96, "MtTrpRS": 2.001}
{"structure": "O=C(Nc1cccnc1)[C@H]1C[C@H]2OCC[C@H]2N(C(=O)c2ccsc2)C1", "Pks13 thioesterase": -11.87, "CoaBC": 3.732, "MtTrpRS": -8.725}
{"structure": "COC(=O)c1cnn(-c2cc(Oc3cccc(C)c3)ncn2)c1N", "Pks13 thioesterase": 4.478, "CoaBC": 3.815, "Leishmania in macrophages": 0.9108, "MtTrpRS": -2.369}
{"structure": "CN(C)CC1CSCCCN1C(=O)c1cccc(C(F)(F)F)c1", "stereo": "centres undefined", "Pks13 thioesterase": -13.23, "CoaBC": -0.3953, "Leishmania in macrophages": 0.9549, "MtTrpRS": 5.768}
{"structure": "Cc1nc(C2CCCN2Cc2ncc(C(C)C)o2)no1", "stereo": "centres undefined", "Pks13 thioesterase": -15.81, "CoaBC": -3.781, "Leishmania in macrophages": -11.44, "MtTrpRS": -2.618}
{"structure": "Cc1nc(C)n(CC2CCCN(CC(=O)NC3CCOCC3)C2)n1", "stereo": "centres undefined", "Pks13 thioesterase": -10.77, "CoaBC": -2.273, "Leishmania in macrophages": -29.54, "MtTrpRS": -1.168}

For reference, 2 entries once more:

| structure | Pks13 thioesterase | CoaBC | Leishmania in macrophages | MtTrpRS |
|---|---|---|---|---|
| `COc1ccc(C2SC(C)=Nc3c2c(=O)[nH]n3C2CCCCC2)cc1O` (centres undefined) | -40.45% | 3.634% | 38.45% | 0.603% |
| `CN(C)CC1CSCCCN1C(=O)c1cccc(C(F)(F)F)c1` (centres undefined) | -13.23% | -0.3953% | 0.9549% | 5.768% |

Source: ChEMBL document CHEMBL3988442, “University of Dundee, Small-Polar-MMV Screening Library” (2021).